Measured values from PubChem BioAssay AID256 (DTP/NCI, 2004).
The list is a part of this screen's results and no random one: it is rich in T/C values a quarter to a half above the control, in often repeated tests (any T/C) and in doses without a T/C. Further doses and runs are listed elsewhere. T/C: endpoint of the treated group in % of that of the vehicle group. Some doses have a count of surviving animals in place of a T/C: the source files T/C as zero there, which appears to mark a toxic dose or a test without result, not a measured value. Some doses without a T/C left all or most animals alive at the check, yet need not have been tolerated: the source hardly ever lists a survival T/C far under the control, and the zero likely stands for such cases as well. Counts of survivors are from the toxicity check (mostly the fifth day) where no day follows; animals may have died later. Schedules are NCI's codes, taken here to give the interval after Q, in days (D) or hours (H), and the number of doses after X. Where survival is the endpoint, this PubChem deposit counts one and a half times the control or more as active, and values a quarter to a half above the control carry no call in these data; other NCI protocols may use other cut-offs. Counts like (3×) say how often a value occurs here. Some entries hold several experiments; their values stand side by side, smallest first. Some T/C values are followed by the survivors on the day toxicity was checked, most often the fifth; where none is given, no animal had died by that day.

Test system: CD2F1 mice, L1210 leukemia ip, survival T/C
Assay: NCI In Vivo Anticancer Drug Screen. Data for tumor model L1210 Leukemia (intraperitoneal) in CD2F1 (CDF1) mice
Settings: higher T/C = longer survival
Outline: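 Read-out first: treated-group measurement over vehicle-control measurement, expressed as a ratio. Animals bore a transplanted tumor line and were dosed with compound or vehicle.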

[1] = T/C endpoint: mean survival time, dose: 100.0 mg/kg/injection, schedule: Q04DX002 (ip), vehicle: saline with Tween-80
[2] = T/C endpoint: mean survival time, dose: 400.0 mg/kg/injection, schedule: Q01DX001 (ip), vehicle: saline with Tween-80
[3] = T/C endpoint: mean survival time, dose: 400.0 mg/kg/injection, schedule: Q04DX002 (ip), vehicle: saline with Tween-80
[4] = T/C endpoint: mean survival time, dose: 400.0 mg/kg/injection, schedule: Q01DX009 (ip), vehicle: saline with Tween-80
[5] = T/C endpoint: mean survival time, dose: 150.0 mg/kg/injection, schedule: Q01DX001 (ip), vehicle: saline
[6] = T/C endpoint: mean survival time, dose: 300.0 mg/kg/injection, schedule: Q01DX001 (ip), vehicle: saline
[7] = T/C endpoint: mean survival time, dose: 200.0 mg/kg/injection, schedule: Q04DX003 (ip), vehicle: saline
[8] = T/C endpoint: mean survival time, dose: 100.0 mg/kg/injection, schedule: Q01DX009 (ip), vehicle: saline with Tween-80
[9] = T/C endpoint: mean survival time, dose: 200.0 mg/kg/injection, schedule: Q04DX003 (ip), vehicle: saline with Tween-80
[10] = T/C endpoint: mean survival time, dose: 400.0 mg/kg/injection, schedule: Q04DX003 (ip), vehicle: saline with Tween-80
[11] = T/C endpoint: mean survival time, dose: 2.0 mg/kg/injection, schedule: Q01DX009 (ip), vehicle: saline
[12] = T/C endpoint: mean survival time, dose: 100.0 mg/kg/injection, schedule: Q04DX003 (ip), vehicle: saline with Tween-80
[13] = T/C endpoint: mean survival time, dose: 200.0 mg/kg/injection, schedule: Q01DX009 (ip), vehicle: saline with Tween-80
[14] = T/C endpoint: mean survival time, dose: 400.0 mg/kg/injection, schedule: Q01DX001 (ip), vehicle: saline
[15] = T/C endpoint: mean survival time, dose: 50.0 mg/kg/injection, schedule: Q01DX009 (ip), vehicle: saline with Tween-80
[16] = T/C endpoint: mean survival time, dose: 200.0 mg/kg/injection, schedule: Q01DX009 (ip), vehicle: saline
[17] = T/C endpoint: mean survival time, dose: 400.0 mg/kg/injection, schedule: Q01DX009 (ip), vehicle: saline
[18] = T/C endpoint: mean survival time, dose: 50.0 mg/kg/injection, schedule: Q01DX009 (ip), vehicle: saline
[19] = T/C endpoint: mean survival time, dose: 100.0 mg/kg/injection, schedule: Q01DX009 (ip), vehicle: saline

Cc1[nH]c2ccc(N=CN(C)C)cc2c1C
survivor count [1]: 1 of 3

CCCN1C(=O)C=CC1=O
survivor count (T/C endpoint: mean survival time, dose: 200.0 mg/kg/injection, schedule: Q01DX001 (ip), vehicle: saline with Tween-80): 1 of 6
survivor count [2]: 2 of 6

O=C(OCC#CCOC(=O)c1c(Cl)ccc(Cl)c1Cl)c1c(Cl)ccc(Cl)c1Cl
survivor count [3]: 3 of 3

COC12[C@@H]3N[C@@H]3CN1C1=C(C(=O)C(N3CCCC(O)C3)=C(C)C1=O)[C@@H]2COC(N)=O (stereo partly drawn)
T/C (T/C endpoint: median survival time, dose: 24.0 mg/kg/injection, schedule: Q01DX001 (ip), vehicle: saline): 126 % of control

CS(=O)(=O)Nc1ccc(Nc2c3ccccc3nc3cc([N+](=O)[O-])ccc23)cc1
T/C (T/C endpoint: mean survival time, dose: 15.0 mg/kg/injection, schedule: Q01DX009 (ip), vehicle: saline): 147 % of control
survivor count (T/C endpoint: mean survival time, dose: 22.0 mg/kg/injection, schedule: Q01DX009 (ip), vehicle: saline): 6 of 6

Fc1c(F)c(F)c(-c2c(F)c(F)c(-c3c(F)c(F)c(-c4c(F)c(F)c(F)c(F)c4F)c(F)c3F)c(F)c2F)c(F)c1F
survivor count [4]: 6 of 6

C[n+]1c[se]cn1
survivor count (T/C endpoint: mean survival time, dose: 75.0 mg/kg/injection, schedule: Q01DX001 (ip), vehicle: saline): 0 of 6
survivor count [5]: 0 of 6
survivor count [6]: 0 of 6

CCC1CC(C)C(=O)NC1=O (stereo not drawn)
survivor count (T/C endpoint: mean survival time, dose: 100.0 mg/kg/injection, schedule: Q04DX003 (ip), vehicle: saline): 4 of 6
survivor count [7]: 0 of 6
survivor count (T/C endpoint: mean survival time, dose: 400.0 mg/kg/injection, schedule: Q04DX003 (ip), vehicle: saline): 0 of 6

NC(N)=NC1CCCC1
survivor count [8]: 2 of 6

OC(c1ccccc1)C1CCN(Cc2ccccc2)CC1 (stereo not drawn)
survivor count [9]: 2 of 6
survivor count [10]: 0 of 6

COC(C(=O)C(O)C(C)O)C1CC2C=C3C=C(OC4CC(OC5CC(O)C(OC)C(C)O5)C(OC(C)=O)C(C)O4)C(C)C(=O)C3=C(O)C2=C(O)C1OC1CC(OC2CC(OC3CC(C)(O)C(O)C(C)O3)C(O)C(C)O2)C(O)C(C)O1 (stereo not drawn)
T/C (T/C endpoint: mean survival time, dose: 0.25 mg/kg/injection, schedule: Q01DX009 (ip), vehicle: saline): 129 % of control
T/C (T/C endpoint: mean survival time, dose: 1.0 mg/kg/injection, schedule: Q01DX009 (ip), vehicle: saline with Tween-80): 128 % of control [5 of 6 alive]
T/C (T/C endpoint: mean survival time, dose: 2.0 mg/kg/injection, schedule: Q01DX009 (ip), vehicle: saline with Tween-80): 134 % of control
T/C [11]: 126 % of control
T/C (T/C endpoint: mean survival time, dose: 4.0 mg/kg/injection, schedule: Q01DX009 (ip), vehicle: saline with Tween-80): 126 % of control [5 of 6 alive]
T/C (T/C endpoint: mean survival time, dose: 8.0 mg/kg/injection, schedule: Q01DX009 (ip), vehicle: saline with Tween-80): 125 % of control (2×)

CN(CCO)N=Nc1ccccc1
survivor count [6]: 1 of 6

NC(=S)N/N=C/c1cccc(CC(O)(C(F)(F)F)C(F)(F)F)n1
survivor count [12]: 6 of 6
survivor count [9]: 6 of 6
survivor count [10]: 3 of 6

CN(C)C1CCC(Nc2nc(Nc3cc(Cl)cc(Cl)c3)nc3ccccc23)CC1 (stereo not drawn)
survivor count [8]: 2 of 6

O=C1NC(=O)/C(=C/C=C/c2ccccc2)S1
survivor count [4]: 1 of 6

Cc1ccc(S(=O)(=O)N/N=C(\C(=O)O)c2ccccc2)cc1
survivor count (T/C endpoint: mean survival time, dose: 400.0 mg/kg/injection, schedule: Q01DX009 (ip), vehicle: Klucel (hydroxypropylcellulose) (HPC)): 6 of 6

COc1cccc(N=Nc2c(N)nc(N)nc2N)c1
survivor count [8]: 6 of 6
survivor count [13]: 3 of 6

COc1ccccc1NC(=O)Nc1ccc(C(=O)OCC(C)C)cc1
survivor count [4]: 3 of 6

Cc1cc2c(=O)cc(-c3ccccc3)oc2c(C(=O)O)c1C
survivor count (T/C endpoint: median survival time, dose: 500.0 mg/kg/injection, schedule: Q01DX005 (ip), vehicle: saline with Tween-80): 0 of 6

CC(=O)OCC1OC(n2ccc3c(N)ncnc32)C(O)C1OC(C)=O (stereo not drawn)
survivor count (T/C endpoint: mean survival time, dose: 40.0 mg/kg/injection, schedule: Q01DX001 (ip), vehicle: saline): 0 of 6
survivor count (T/C endpoint: mean survival time, dose: 80.0 mg/kg/injection, schedule: Q01DX001 (ip), vehicle: saline): 0 of 6

[Cl][Hg][c]1ccc2ccccc2c1
survivor count [1]: 0 of 3
survivor count (T/C endpoint: mean survival time, dose: 200.0 mg/kg/injection, schedule: Q04DX002 (ip), vehicle: saline with Tween-80): 1 of 3
survivor count [3]: 0 of 3

CC1OC(=O)C(C(C)C)NC(=O)C(C(C)C)OC(=O)C(C(C)C)NC(=O)C(C)OC(=O)C(C(C)C)NC(=O)C(C(C)C)OC(=O)C(C(C)C)NC(=O)C(C)OC(=O)C(C(C)C)NC(=O)C(C(C)C)OC(=O)C(C(C)C)NC1=O (stereo not drawn)
survivor count (T/C endpoint: mean survival time, dose: 10.0 mg/kg/injection, schedule: Q01DX009 (ip), vehicle: saline with Tween-80): 3 of 6
T/C (T/C endpoint: mean survival time, dose: 40.0 mg/kg/injection, schedule: Q01DX009 (ip), vehicle: saline with Tween-80): 128 % of control

NCCc1nc(N)nc(N)c1-c1ccc(Cl)cc1
survivor count [2]: 1 of 6

O=[As](O)(O)c1ccccc1[As](=O)(O)O
survivor count [12]: 1 of 6
survivor count [9]: 0 of 6
survivor count [10]: 0 of 6

CCCCN1C(=O)C(=O)N(c2cc(Cl)c(OC)cc2OC)C1=O
survivor count [8]: 3 of 3
survivor count [13]: 3 of 3

C/C(=N\NC(N)=S)c1ccc2cc3c(cc2c1)OCO3
survivor count [5]: 0 of 6
survivor count [6]: 0 of 6

[Cl][Ga]([Cl])[Cl]
survivor count [7]: 2 of 6
survivor count [14]: 3 of 6

C/C(=N/NC(=O)CC#N)c1ccccc1
survivor count [8]: 3 of 3
survivor count [13]: 0 of 3
survivor count [4]: 0 of 3

O=C(Nc1nncs1)c1ccncc1
T/C [15]: 126 % of control
T/C [8]: 125 [5 of 6 alive] and 126 % of control
survivor count [4]: 3 of 6

O=C(O)/C=C/C(=O)Nc1ccc(I)cc1
survivor count [4]: 0 of 6

COc1cc2c(cc1OC)C1Cc3ccc4cc(OC)c(OC)cc4c3CN1CC2 (stereo not drawn)
survivor count [16]: 3 of 6
survivor count [17]: 1 of 6

O=C1CC(c2ccccc2)CO1 (stereo not drawn)
survivor count [14]: 2 of 4

COC(C(=O)C(O)C(C)O)C1Cc2cc3cc(OC4CC(OC5CC(O)C(O)C(C)O5)C(O)C(C)O4)c(C)c(O)c3c(O)c2C(=O)C1OC1CC(OC2CC(O)C(OC3CC(C)(O)C(O)C(C)O3)C(C)O2)C(O)C(C)O1 (stereo not drawn)
survivor count [11]: 3 of 6

COc1ncnc2c1c(C#N)cn2C1OC(CO)C(O)C1O (stereo not drawn)
T/C (T/C endpoint: mean survival time, dose: 12.5 mg/kg/injection, schedule: Q01DX009 (ip), vehicle: saline): 128 % of control

O=c1[nH]cc(F)c(=O)n1C1CCCCO1 (stereo not drawn)
T/C (T/C endpoint: mean survival time, dose: 25.0 mg/kg/injection, schedule: Q01DX009 (ip), vehicle: saline): 125 and 129 % of control
T/C [18]: 128 % of control

O=c1cc(CBr)c2ccccc2[nH]1
survivor count (T/C endpoint: mean survival time, dose: 50.0 mg/kg/injection, schedule: Q04DX003 (ip), vehicle: saline with Tween-80): 2 of 6
survivor count [12]: 0 of 6

O=C1CSC(=S)N1/N=C/c1ccccc1
survivor count (T/C endpoint: mean survival time, dose: 200.0 mg/kg/injection, schedule: Q04DX002 (ip), vehicle: saline): 0 of 3
survivor count (T/C endpoint: mean survival time, dose: 400.0 mg/kg/injection, schedule: Q04DX002 (ip), vehicle: saline): 1 of 3

CC(C)(SC(c1ccccc1)(c1ccccc1)c1ccccc1)C(N)C(=O)O (stereo not drawn)
survivor count [19]: 0 of 6
survivor count [16]: 0 of 6
survivor count (T/C endpoint: mean survival time, dose: 300.0 mg/kg/injection, schedule: Q01DX009 (ip), vehicle: saline): 0 of 6
survivor count [17]: 0 of 6

Cc1cccc(SC(=O)Nc2ccc(Cl)cc2C)c1
survivor count [15]: 3 of 3

CCOP(=O)(OCC)OC(C)C#N (stereo not drawn)
survivor count [18]: 3 of 6
survivor count [19]: 0 of 6
survivor count [16]: 0 of 6
survivor count [17]: 0 of 6
